Reference: patent US6153653A, “Choline compositions and uses thereof” (Protarga, Inc., priority 1997, dated 2000)
Entries after “also recorded” stand apart in the source; their conditions may differ. For at least one compound, name, drawing or mass did not settle the structure.

Experiments:
[1] = test system: locomotor activity of mice; experiment: Locomotor activity (locomotor depression) study, Digiscan chambers; assay type: in vivo, male Swiss-Webster mice (Hsd:ND4); details: i.p., 0.5 to 40 mg/kg
Protocol: A dose-response study of DHA-choline-induced locomotor depression was conducted using 40 Digiscan locomotor activity testing chambers (40.5×40.5×30.5 cm) housed in sets of two, within sound attenuating chambers. A panel of infrared beams (16 beams) and corresponding photo detectors were located in the horizontal direction along the sides of each activity chamber. A 7.5W incandescent light above each chamber provided dim illumination. Fans provided an 80-dB ambient noise level within the chamber. Separate groups of 8 non-habituated male Swiss-Webster mice (Hsd:ND4, aged 2-3 mo.) were injected via the intraperitoneal route (i.p.) with either vehicle or DHA-choline (0.5, 2.5, 5, 10, 20 or 40 mg/kg), 20 minutes prior to locomotor activity testing. In all studies, the total distance (cm traversed in the horizontal plane) was measured for 2 hours within 10 min periods.
The period 0-30 min was selected for analysis of dose-response data because this is the time period in which DHA-choline produced maximal effects. The mean average distance per 10 min for this 30 min period were fit to a linear function of log, dose of the descending portion of the dose-effect curve (0.5 to 40 mg/kg dose range).

[2] = test system: neurological deficits of rats after middle cerebral artery occlusion; experiment: Neurological deficit test (scores 0 to 5) after MCA occlusion; assay type: in vivo, rat; details: 50 mg/kg i.p. 30 min prior to occlusion, again 24 and 48 hours later; end of three days; all drug treated animals
[3] = test system: phosphatidylcholine-specific phospholipase C; details: cited from earlier work
[4] = test system: MCA occlusions of rat brain; experiment: Middle cerebral artery occlusion-reperfusion stroke model, infarct by triphenyltetrazolium chloride staining; assay type: in vivo; details: administered prior to onset of occlusion or at three hours after onset
Protocol: Two sets of experiments were carried out. In the first set, rats were administered with 50 mg/kg of DHA-choline i.p. at 30 minutes prior to occlusion of the middle cerebral artery of the left side of the brain using a standard highly reproducible animal model of stroke (Karpiak et al., J. Neurosci. Res. 30:512-520, 1991). Occlusion of the middle cerebral artery inhibits blood flow to a major portion of the left cortical and subcortical regions of the brain. After a two hour period, the occluded blood vessel was opened to allow reperfusion of the brain, and anesthesia was terminated. Each animal received additional doses of 50 mg/kg of DHA-choline 24 and 48 hours later.
The animals were sacrificed, perfused with formalin fixative, brains were sliced into seven 2 mm thick coronal sections, and stained with triphenyltetrazolium chloride (Watson et al., J. Neurosci. Methods 53:203-208, 1994). In this test, tissue that contains intact mitochondria stains red, whereas dead tissue with damaged mitochondria picks up no stain and remains white. Each unstained area on the left side of a section was measured and compared to the total area of the control non-occluded right side of the same section of the brain. The area of damaged (white) brain tissue cells was calculated as a percent of the intact right side of a section. […] (n=5 per group.) […]

## CC/C=C\C/C=C\C/C=C\C/C=C\C/C=C\C/C=C\CCC(=O)OCC[N+](C)(C)C [DHA-choline, docosahexaenoyl choline iodide]
[1]
  locomotor activity (in words): inhibits locomotor activity in a dose-dependent manner
[2]
  neurological deficits (in words): did not show paw extension disability and walked normally in a straight line
[3]
  phosphatidylcholine-specific phospholipase C activity (in words): stimulated phosphatidylcholine-specific phospholipase C activity
[4]
  rescue of cortical cells / cortical infarcts / rescue of brain tissue (in words): complete rescue of the cortical cells; also recorded: only subcortical infarcts with no incidence of cortical infarcts; also recorded: rescued brain tissue from effects of occlusion
